From the supplement of paper PMC8104966
Some of the results follow. Single values are uncertain here, since repeats match poorly.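 U2OS cells expressing ACE2 were combined with U2OS cells expressing full-length spike, and imaging quantified fusion as the fraction of nuclei displaying both cell types' fluorescent markers. Non-toxic compounds with a fusion z-score under -3, i.e., over three standard deviations below the plate's DMSO wells, are called inhibitory hits.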

What follows are molecules tested on U2OS ACE2 x SARS-CoV-2 spike co-culture (assay: cell-cell fusion (fraction fused) z-score vs plate DMSO control; higher = more fusion). Details: 30 µM; 5 h; toxicity class: non-toxic, passed QC.

Row | SMILES | cell-cell fusion (z-score)
1 | CCC(=O)c1c(O)cc(O)cc1O | inactive: -0.81
2 | CS(=O)(=O)O.N#CC1(c2ccc(NC(=O)c3cccnc3NCc3ccncc3)cc2)CCCC1 [Apatinib mesylate] | inactive: 1.18
3 | C=C1c2cccc(O)c2C(=O)C2=C(O)[C@]3(O)C(=O)C(C(N)=O)=C(O)[C@@H](N(C)C)[C@@H]3[C@@H](O)[C@H]12.Cl | inactive: 0.959
4 | CCCCOc1ccc(C(=O)CCN2CCCCC2)cc1.Cl [Dyclonine hydrochloride] | inactive: 1.6
5 | C[C@@H]1CC[C@H]2[C@@H](C)C(O)O[C@@H]3O[C@]4(C)CC[C@@H]1[C@]32OO4 (some centres undefined) | inactive: -0.956
6 | OCc1ccccc1 | inactive: 2.85
7 | OCc1ccccc1 [Benzyl alcohol] | inactive: 4.31
8 | CC[C@@]1(O)C(=O)OCc2c1cc1n(c2=O)Cc2cc3c(CN(C)C)c(O)ccc3nc2-1.Cl.O [Topotecan hydrochloride hydrate] | inactive: 4.31
9 | CCCCC(F)(F)[C@@]1(O)CC[C@H]2[C@@H](CC(=O)[C@@H]2CCCCCCC(=O)O)O1 [Lubiprostone] | inactive: 2.2
10 | CC[C@H](CO)Nc1nc(NCc2ccccc2)c2ncn(C(C)C)c2n1 [Roscovitine (Seliciclib,CYC202)] | inactive: -1.25
11 | CC[C@H](CO)Nc1nc(NCc2ccccc2)c2ncn(C(C)C)c2n1 [Roscovitine (Seliciclib, CYC202)] | inactive: 2.06
12 | O=C(NOCC(O)CO)c1cc(Br)c(F)c(F)c1Nc1ccc(I)cc1F (centres undefined) | inactive: -0.112
13 | CC(=O)O[C@H]1CC[C@@]2(C)C(=CC[C@@H]3[C@@H]2CC[C@]2(C)C(c4cccnc4)=CC[C@@H]32)C1 [Abiraterone Acetate] | inactive: 3.11
14 | Cl.Clc1cc(I)cc(Cl)c1N=C1NCCN1 [p-Iodoclonidine hydrochloride] | inactive: 2.52
15 | C[N+](C)(C)CC(=O)O.[Cl-] [Betaine hydrochloride] | inactive: 2.06
16 | COc1cc(OC)cc(-c2cc3cnc(N)nc3nc2NC(=O)NC(C)(C)C)c1 | inactive: 1.19
17 | Cc1cccc(C#Cc2ccccc2)n1.Cl [6-Methyl-2-(phenylethynyl)pyridine hydrochloride] | inactive: 1.73
18 | Oc1ccc(O)cc1 [Hydroquinone] | inactive: 1.34
19 | CC(=O)O.CC(C)C[C@H](NC(=O)[C@@H](COC(C)(C)C)NC(=O)[C@H](Cc1ccc(O)cc1)NC(=O)[C@H](CO)NC(=O)[C@H](Cc1c[nH]c2ccccc12)NC(=O)[C@H](Cc1c[nH]cn1)NC(=O)[C@@H]1CCC(=O)N1)C(=O)N[C@@H](CCCNC(=N)N)C(=O)N1CCC[C@H]1C(=O)NNC(N)=O [Goserelin acetate] | inactive: 2.74
20 | CC(CCC(=O)O)[C@H]1CCC2C3CC[C@@H]4C[C@H](O)CC[C@]4(C)C3CC[C@@]21C (some centres undefined) | inactive: 2.9
21 | CCN(CC)C(=O)c1cccnc1 | inactive: 1.13
22 | O=C1OC(=O)C2C3CCC(O3)C12 (centres undefined) | inactive: 4.06
23 | O=C1OC(=O)C2C3CCC(O3)C12 (centres undefined) [Norcantharidin] | inactive: 2.35

From entry 6 to 11, as listed above:
Row | SMILES | cell-cell fusion (z-score)
6 | OCc1ccccc1 | inactive: 2.85
7 | OCc1ccccc1 [Benzyl alcohol] | inactive: 4.31
8 | CC[C@@]1(O)C(=O)OCc2c1cc1n(c2=O)Cc2cc3c(CN(C)C)c(O)ccc3nc2-1.Cl.O [Topotecan hydrochloride hydrate] | inactive: 4.31
9 | CCCCC(F)(F)[C@@]1(O)CC[C@H]2[C@@H](CC(=O)[C@@H]2CCCCCCC(=O)O)O1 [Lubiprostone] | inactive: 2.2
10 | CC[C@H](CO)Nc1nc(NCc2ccccc2)c2ncn(C(C)C)c2n1 [Roscovitine (Seliciclib,CYC202)] | inactive: -1.25
11 | CC[C@H](CO)Nc1nc(NCc2ccccc2)c2ncn(C(C)C)c2n1 [Roscovitine (Seliciclib, CYC202)] | inactive: 2.06

Continuation.

Row | SMILES | cell-cell fusion (z-score)
24 | CC[C@@H]1C(=O)N(C)c2cnc(Nc3ccc(C(=O)N[C@H]4CC[C@H](N5CCN(CC6CC6)CC5)CC4)cc3OC)nc2N1C(C)C [BI6727 (Volasertib)] | inactive: 1.65
25 | Cc1cc(C2CCCCC2)n(O)c(=O)c1.NCCO [Ciclopirox ethanolamine] | inactive: 1.96
26 | N[C@H](C(=O)O)[C@H](O)C(=O)O (racemic) [DL-threo-beta-hydroxyaspartic acid] | inactive: 2.33
27 | CC(=O)N[C@@H](Cc1ccc(O)cc1)C(=O)O [N-Acetyl-L-tyrosine] | inactive: 2.76
28 | CCC1OC(=O)[C@H](C)C(=O)[C@H](C)[C@@H](OC2O[C@H](C)C[C@H](N(C)C)[C@H]2O)[C@](C)(OC)C[C@@H](C)C(=O)[C@@H](C)[C@@H]2N(CCCCn3cnc(-c4cccnc4)c3)C(=O)O[C@]12C (some centres undefined) | inactive: 2.89
29 | N=C(N)N1CCc2ccccc2C1.O=S(=O)(O)O | inactive: 3.47
30 | COc1c2c(cc3c1OCO3)CC[N+](C)=C2.[Cl-] | inactive: 1.53
31 | Cn1c(=O)c2c(ncn2CC2OCCO2)n(C)c1=O | inactive: 1.54
32 | COc1cc2c(cc1OC)C1Cc3ccc(OC)c(OC)c3CN1CC2 (centres undefined) | inactive: 2.51
33 | CC(=O)O[C@H]1C[C@@H]2CC[C@@H]3[C@H](CC[C@@]4(C)[C@H]3C[C@H]([N+]3(C)CCCCC3)[C@@H]4OC(C)=O)[C@@]2(C)C[C@@H]1[N+]1(C)CCCCC1.[Br-].[Br-] [Pancuronium bromide] | inactive: 2.09
34 | NCCCP(=O)(O)O [3-Aminopropylphosphonic acid] | inactive: 1.81
35 | S=C([S-])N1CCCC1.[NH4+] [Ammonium pyrrolidinedithiocarbamate] | active: -4.88
36 | C[C@@H](NCCc1ccc(O)cc1)[C@@H](O)c1ccc(O)cc1.Cl [Ritodrine hydrochloride] | inactive: -0.459
37 | CCOC(=O)[C@H](CCc1ccccc1)N[C@@H](C)C(=O)N1CCC[C@H]1C(=O)O.O=C(O)/C=C\C(=O)O | inactive: 2.64
38 | C[C@H](NC(=O)Cc1cc(F)cc(F)c1)C(=O)N[C@H](C(=O)OC(C)(C)C)c1ccccc1 | inactive: 3.26
39 | COc1ccc2cc(CCC(C)=O)ccc2c1 [Nabumetone] | inactive: 1.48
40 | CC(=O)[N-]S(=O)(=O)c1ccc(N)cc1.[Na+] [Sulfacetamide sodium] | inactive: 2.69
41 | CCC[C@@H]1C[C@@H](C(=O)N[C@@H](C2O[C@H](SC)[C@H](O)[C@@H](O)[C@H]2O)[C@H](C)Cl)N(C)C1.Cl (some centres undefined) | inactive: 0.0342
42 | CC[C@H]1OC(=O)[C@H](C)[C@@H](O[C@H]2C[C@@](C)(OC)[C@@H](O)[C@H](C)O2)[C@H](C)[C@@H](O[C@@H]2O[C@H](C)C[C@H](N(C)C)[C@H]2O)[C@](C)(OC)C[C@@H](C)C(=O)[C@H](C)[C@@H](O)[C@]1(C)O [Clarithromycin] | inactive: 3.48
43 | CNC(C)[C@@H]1CC[C@@H](N)[C@@H](OC2[C@@H](N)C[C@@H](N)[C@H](OC3OC[C@](C)(O)[C@H](NC)[C@H]3O)[C@H]2O)O1 (some centres undefined) | inactive: 2.31
44 | Cn1c(=O)[nH]c2ncn(C)c2c1=O | inactive: 0.8
45 | Cn1c(=O)[nH]c2ncn(C)c2c1=O [1,7-Dimethylxanthine] | inactive: 2.9
46 | NC(=O)c1ncn(C2O[C@H](CO)[C@@H](O)[C@H]2O)c1N (some centres undefined) | inactive: 2.03

Row | SMILES | cell-cell fusion (z-score)
47 | COc1cc([C@@H]2c3cc4c(cc3[C@@H](O[C@@H]3O[C@@H]5CO[C@@H](C)O[C@@]5(O)C[C@H]3O)[C@H]3COC(=O)[C@H]23)OCO4)cc(OC)c1O [Etoposide] | inactive: 2.62
48 | NNc1nncc2ccccc12 | inactive: 0.682
49 | O=C(NCCN1CCOCC1)c1ccc(Cl)cc1 [Moclobemide] | inactive: 3.08
50 | COc1ccc(C2CNC(=O)C2)cc1OC1CCCC1 (centres undefined) | inactive: 3.13
51 | CC1(C)C(C=C(Cl)Cl)C1C(=O)OCc1cccc(Oc2ccccc2)c1 (centres undefined) | inactive: 3.15
52 | CN(C)CCC[C@@]1(c2ccc(F)cc2)OCc2cc(C#N)ccc21.O=C(O)C(=O)O [Escitalopram Oxalate] | inactive: -1.14
53 | CCN(CC)C(=S)SSC(=S)N(CC)CC | inactive: 0.92
54 | CCN(CC)C(=S)SSC(=S)N(CC)CC [Tetraethylthiuram disulfide] | inactive: 0.823
55 | CCN(CC)C(=S)SSC(=S)N(CC)CC [Disulfiram] | inactive: 2.86
56 | C[N+]1(C)C2CC(OC(=O)[C@H](CO)c3ccccc3)CC1C1OC12.O=[N+]([O-])[O-] (single isomer, unassigned; (-)) [(-)-Scopolamine methyl nitrate] | inactive: 2.11
57 | CC12CCC(=O)C=C1CCC1C2[C@@H](O)CC2(C)C1CC[C@]2(O)C(=O)COP(=O)([O-])[O-].CC[NH+](CC)CC.CC[NH+](CC)CC (some centres undefined) | inactive: 0.747
58 | O=S(=O)([O-])Oc1ccc(C(c2ccc(OS(=O)(=O)[O-])cc2)c2ccccn2)cc1.[Na+].[Na+] [Sodium Picosulfate] | inactive: 2.92
59 | OCc1ccccc1O | inactive: 4.68
60 | COc1cc(O)cc(OC)c1OC | inactive: 0.528
61 | COc1ccc2c(C)cc(=O)oc2c1 | inactive: 1.85
62 | NCCCC(O)(P(=O)(O)O)P(=O)(O)O.O.O.O.[Na+] | inactive: 2.22
63 | COc1cc(O)c(C)c(O)c1 | inactive: 2.32
64 | O=C(O)/C=C/c1c[nH]cn1 [4-Imidazoleacrylic acid] | inactive: 1.1
65 | CN(C)CCC(c1ccccc1)c1ccccn1.O=C(O)/C=C\C(=O)O (centres undefined) [Pheniramine maleate] | inactive: 2.84
66 | CC1=C(/C=C/C(C)=C/C=C/C(C)=C/CO)C(C)(C)CCC1 [Retinol] | inactive: 3.75
67 | Cc1nc(C)c(Cl)c(O)c1Cl | inactive: 2.13
68 | O=S(=O)([O-])CCCS(=O)(=O)[O-].[Na+].[Na+] | inactive: 2.76
69 | C[C@]12N[C@H](Cc3ccccc31)c1ccccc12.O=C(O)/C=C\C(=O)O [(+)-MK-801 hydrogen maleate] | inactive: 3.12
